Literature values in patent US20190390161A1, “CULTURE MEDIUM COMPRISING OLIGOPEPTIDES” (Evonik Degussa GmbH, priority 2017, published 2019).
Peptide text beside a SMILES is read from it.

Tested on: trypsin
Conditions: Chemical & Pharmaceutical Bulletin 22, 2680 (1974); cited from earlier work

Row | Compound | cleavage (hydrolysis) by trypsin
1 | CC(=O)O.CC(C)C[C@H](NC(=O)[C@@H](N)CCCCN)C(=O)O [Lys-Leu, L-Lysyl-L-leucine acetat] (H-Lys-Leu-OH) | none of these peptides were cleaved
2 | Lys-Lys [reference compound] | none of these peptides were cleaved
